Measurements as given in the supplement of paper PMC8728848.
Some of the results follow.

What was measured:
Test in all cases: glycan array binding signal (z-score within array); higher = stronger binding
Conditions in all cases: glycan notation: IUPAC condensed, linker removed
[1] = biological target: Fuc(a1-2)Gal(b1-4)[Fuc(a1-3)]GlcNAc
Procedure, shortened: (§1)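 From the Consortium for Functional Glycomics database, 3228 arrays were curated, keeping only those whose protein sequence was available. Binding is given as a within-array Z-score averaged across arrays sharing a protein sequence and across linkers. Negative Z-scores can be read as non-binding.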

[2] = biological target: Fuc(a1-2)Gal(b1-4)[Fuc(a1-3)]GlcNAc(b1-2)Man(a1-3)[Fuc(a1-2)Gal(b1-4)[Fuc(a1-3)]GlcNAc(b1-2)Man(a1-6)]Man(b1-4)GlcNAc(b1-4)[Fuc(a1-6)]GlcNAc
Procedure, shortened: as §1

[3] = biological target: Fuc(a1-2)Gal(b1-4)[Fuc(a1-3)]GlcNAc(b1-2)[Fuc(a1-2)Gal(b1-4)[Fuc(a1-3)]GlcNAc(b1-4)]Man(a1-3)[Fuc(a1-2)Gal(b1-4)[Fuc(a1-3)]GlcNAc(b1-2)Man(a1-6)]Man(b1-4)GlcNAc(b1-4)GlcNAc
Procedure, shortened: as §1

[4] = biological target: Fuc(a1-2)Gal(b1-4)[Fuc(a1-3)]GlcNAc(b1-3)Gal(b1-4)[Fuc(a1-3)]GlcNAc
Procedure, shortened: as §1

[5] = biological target: Fuc(a1-2)Gal(b1-4)[Fuc(a1-3)]GlcNAc(b1-3)Gal(b1-4)[Fuc(a1-3)]GlcNAc(b1-3)Gal(b1-4)[Fuc(a1-3)]GlcNAc
Procedure, shortened: as §1

[6] = biological target: Fuc(a1-2)Gal(b1-4)[Fuc(a1-3)]GlcNAc(b1-3)GalNAc
Procedure, shortened: as §1

[7] = biological target: Fuc(a1-2)Gal(b1-4)[Fuc(a1-3)]GlcNAc(b1-3)[Neu5Ac(a2-6)Gal(b1-4)GlcNAc(b1-6)]Gal(b1-4)Glc
Procedure, shortened: as §1

[8] = biological target: Fuc(a1-2)Gal3S(b1-4)GlcNAc
Procedure, shortened: as §1

[9] = biological target: Fuc(a1-2)Gal6S(b1-3)GlcNAc
Procedure, shortened: as §1

[10] = biological target: Fuc(a1-2)Gal6S(b1-3)GlcNAc6S
Procedure, shortened: as §1

[11] = biological target: Fuc(a1-2)Gal6S(b1-4)Glc
Procedure, shortened: as §1

[12] = biological target: Fuc(a1-2)Gal6S(b1-4)Glc6S
Procedure, shortened: as §1

[13] = biological target: Fuc(a1-2)[Gal(a1-3)]Gal
Procedure, shortened: as §1

[14] = biological target: Fuc(a1-2)[Gal(a1-3)]Gal(b1-3)GalNAc
Procedure, shortened: as §1

[15] = biological target: Fuc(a1-2)[Gal(a1-3)]Gal(b1-3)GalNAc(b1-3)Gal(a1-4)Gal(b1-4)Glc
Procedure, shortened: as §1

[16] = biological target: Fuc(a1-2)[Gal(a1-3)]Gal(b1-3)GlcNAc
Procedure, shortened: as §1

[17] = biological target: Fuc(a1-2)[Gal(a1-3)]Gal(b1-3)GlcNAc(b1-2)Man(a1-3)[Fuc(a1-2)[Gal(a1-3)]Gal(b1-3)GlcNAc(b1-2)Man(a1-6)]Man(b1-4)GlcNAc(b1-4)GlcNAc
Procedure, shortened: as §1

[18] = biological target: Fuc(a1-2)[Gal(a1-3)]Gal(b1-3)GlcNAc(b1-2)Man(a1-3)[Fuc(a1-2)[Gal(a1-3)]Gal(b1-3)GlcNAc(b1-2)Man(a1-6)]Man(b1-4)GlcNAc(b1-4)[Fuc(a1-6)]GlcNAc
Procedure, shortened: as §1

[19] = biological target: Fuc(a1-2)[Gal(a1-3)]Gal(b1-3)GlcNAc(b1-3)GalNAc
Procedure, shortened: as §1

[20] = biological target: Fuc(a1-2)[Gal(a1-3)]Gal(b1-3)GlcNAc(b1-6)GalNAc
Procedure, shortened: as §1

[21] = biological target: Fuc(a1-2)[Gal(a1-3)]Gal(b1-4)Glc
Procedure, shortened: as §1

[22] = biological target: Fuc(a1-2)[Gal(a1-3)]Gal(b1-4)GlcNAc
Procedure, shortened: as §1

[23] = biological target: Fuc(a1-2)[Gal(a1-3)]Gal(b1-4)GlcNAc(b1-2)Man
Procedure, shortened: as §1

[24] = biological target: Fuc(a1-2)[Gal(a1-3)]Gal(b1-4)GlcNAc(b1-2)Man(a1-3)[Fuc(a1-2)[Gal(a1-3)]Gal(b1-4)GlcNAc(b1-2)Man(a1-6)]Man(b1-4)GlcNAc(b1-4)GlcNAc
Procedure, shortened: as §1

[25] = biological target: Fuc(a1-2)[Gal(a1-3)]Gal(b1-4)GlcNAc(b1-2)Man(a1-3)[Fuc(a1-2)[Gal(a1-3)]Gal(b1-4)GlcNAc(b1-2)Man(a1-6)]Man(b1-4)GlcNAc(b1-4)[Fuc(a1-6)]GlcNAc
Procedure, shortened: as §1

[26] = biological target: Fuc(a1-2)[Gal(a1-3)]Gal(b1-4)GlcNAc(b1-3)GalNAc
Procedure, shortened: as §1

[27] = biological target: Fuc(a1-2)[Gal(a1-3)]Gal(b1-4)GlcNAc(b1-6)GalNAc
Procedure, shortened: as §1

[28] = biological target: Fuc(a1-2)[Gal(a1-3)]Gal(b1-4)[Fuc(a1-3)]Glc
Procedure, shortened: as §1

[29] = biological target: Fuc(a1-2)[Gal(a1-3)]Gal(b1-4)[Fuc(a1-3)]GlcNAc
Procedure, shortened: as §1

[30] = biological target: Fuc(a1-2)[Gal(a1-3)]Gal(b1-4)[Fuc(a1-3)]GlcNAc(b1-3)GalNAc
Procedure, shortened: as §1

[31] = biological target: Fuc(a1-2)[Gal(a1-4)]Gal(b1-4)GlcNAc
Procedure, shortened: as §1

[32] = biological target: Fuc(a1-2)[GalNAc(a1-3)]Gal
Procedure, shortened: as §1

[33] = biological target: Fuc(a1-2)[GalNAc(a1-3)]Gal(b1-3)GalNAc(a1-3)[Fuc(a1-2)]Gal(b1-4)GlcNAc
Procedure, shortened: as §1

[34] = biological target: Fuc(a1-2)[GalNAc(a1-3)]Gal(b1-3)GalNAc(b1-3)Gal(a1-4)Gal(b1-4)Glc
Procedure, shortened: as §1

[35] = biological target: Fuc(a1-2)[GalNAc(a1-3)]Gal(b1-3)GlcNAc
Procedure, shortened: as §1

[36] = biological target: Fuc(a1-2)[GalNAc(a1-3)]Gal(b1-3)GlcNAc(b1-2)Man(a1-3)[Fuc(a1-2)[GalNAc(a1-3)]Gal(b1-3)GlcNAc(b1-2)Man(a1-6)]Man(b1-4)GlcNAc(b1-4)GlcNAc
Procedure, shortened: as §1

[37] = biological target: Fuc(a1-2)[GalNAc(a1-3)]Gal(b1-3)GlcNAc(b1-2)Man(a1-3)[Fuc(a1-2)[GalNAc(a1-3)]Gal(b1-3)GlcNAc(b1-2)Man(a1-6)]Man(b1-4)GlcNAc(b1-4)[Fuc(a1-6)]GlcNAc
Procedure, shortened: as §1

[38] = biological target: Fuc(a1-2)[GalNAc(a1-3)]Gal(b1-3)GlcNAc(b1-3)GalNAc
Procedure, shortened: as §1

B1: AntigenI/IIA3VP1 (Streptococcus mutans), C9E3B4 (protein)
chain: AANEADYQAKLTAYQTELARVQKANADAKAAYEAAVAANNAANAALTAENTAIKKRNADAKADYEAKLAKYQADLAKYQKDLADYPVKLKAYEDEQASIKAALAELEKHKNEDGNLTEPSAQNLVYDLEPNANLSLTTDGKFLKASAVDDAFSKSTSKAKYDQKILQLDDLDITNLEQSNDVASSMELYGNFGDKAGWSTTVSNNSQVKWGSVLLERGQSATATYTNLQNSYYNGKKISKIVYKYTVDPKSKFQGQKVWLGIFTDPTLGVFASAYTGQVEKNTSIFIKNEFTFYDEDGKPINFDNALLSVASLNREHNSIEMAKDYSGKFVKISGSSIGEKNGMIYATDTLNFKQGEGGSRWTMYKNSQAGSGWDSSDAPNSWYGAGAIKMSGPNNYVTVGATSATNVMPVSDMPVVPGKDNTDGKKPNIWYSLNGKIRAVNVPKVTKEKPTPPVKPTAPTKPTYETEKPLKPAPVAPNYEKEPTPPTRLEHHHHHH
**Q.** With B1 as the binder, how does the “glycan array binding signal (z-score)” value [1] read?
**A.** Its value is 0.077.

**Q.** What about the “glycan array binding signal (z-score)” value [2] of the same binder?
**A.** The value was 2.56.

**Q.** And the “glycan array binding signal (z-score)” value [3]?
**A.** The value was 0.209.

**Q.** What about the “glycan array binding signal (z-score)” value [4] of the same binder?
**A.** Its value is 0.17.

**Q.** And the “glycan array binding signal (z-score)” value [5]?
**A.** The value was 1.5.

**Q.** What about the “glycan array binding signal (z-score)” value [6] of the same binder?
**A.** The value was 0.836.

**Q.** What about the “glycan array binding signal (z-score)” value [7] of the same binder?
**A.** Its value is -0.89.

**Q.** What about the “glycan array binding signal (z-score)” value [8] of the same binder?
**A.** Its value is -1.08.

**Q.** What about the “glycan array binding signal (z-score)” value [9] of the same binder?
**A.** Its value is 0.47.

**Q.** And the “glycan array binding signal (z-score)” value [10]?
**A.** Its value is -0.124.

**Q.** And the “glycan array binding signal (z-score)” value [11]?
**A.** The value was -0.552.

**Q.** And the “glycan array binding signal (z-score)” value [12]?
**A.** The value was 0.254.

**Q.** What about the “glycan array binding signal (z-score)” value [13] of the same binder?
**A.** Its value is -0.228.

**Q.** What about the “glycan array binding signal (z-score)” value [14] of the same binder?
**A.** Its value is 0.123.

**Q.** And the “glycan array binding signal (z-score)” value [15]?
**A.** Its value is -0.958.

**Q.** What about the “glycan array binding signal (z-score)” value [16] of the same binder?
**A.** The value was -0.863.

**Q.** What about the “glycan array binding signal (z-score)” value [17] of the same binder?
**A.** The value was -0.497.

**Q.** And the “glycan array binding signal (z-score)” value [18]?
**A.** Its value is -0.592.

**Q.** And the “glycan array binding signal (z-score)” value [19]?
**A.** Its value is 1.6.

**Q.** What about the “glycan array binding signal (z-score)” value [20] of the same binder?
**A.** Its value is 0.337.

**Q.** What about the “glycan array binding signal (z-score)” value [21] of the same binder?
**A.** Its value is -0.572.

**Q.** And the “glycan array binding signal (z-score)” value [22]?
**A.** Its value is -1.

**Q.** What about the “glycan array binding signal (z-score)” value [23] of the same binder?
**A.** Its value is -0.528.

**Q.** And the “glycan array binding signal (z-score)” value [24]?
**A.** Its value is 0.174.

**Q.** And the “glycan array binding signal (z-score)” value [25]?
**A.** Its value is 3.1.

**Q.** What about the “glycan array binding signal (z-score)” value [26] of the same binder?
**A.** Its value is -0.213.

**Q.** And the “glycan array binding signal (z-score)” value [27]?
**A.** The value was -0.017.

**Q.** What about the “glycan array binding signal (z-score)” value [28] of the same binder?
**A.** The value was 0.825.

**Q.** And the “glycan array binding signal (z-score)” value [29]?
**A.** The value was -0.161.

**Q.** And the “glycan array binding signal (z-score)” value [30]?
**A.** Its value is -0.146.

**Q.** What about the “glycan array binding signal (z-score)” value [31] of the same binder?
**A.** Its value is -0.2.

**Q.** What about the “glycan array binding signal (z-score)” value [32] of the same binder?
**A.** Its value is -1.13.

**Q.** What about the “glycan array binding signal (z-score)” value [33] of the same binder?
**A.** Its value is -0.354.

**Q.** And the “glycan array binding signal (z-score)” value [34]?
**A.** Its value is -0.495.

**Q.** And the “glycan array binding signal (z-score)” value [35]?
**A.** Its value is 0.35.

**Q.** And the “glycan array binding signal (z-score)” value [36]?
**A.** Its value is 1.03.

**Q.** What about the “glycan array binding signal (z-score)” value [37] of the same binder?
**A.** The value was -0.775.

**Q.** And the “glycan array binding signal (z-score)” value [38]?
**A.** The value was 0.739.
